# Measurements taken from PubChem BioAssay AID493014 (National Center for Advancing Translational Sciences (NCATS), 2011).
# The other results are listed elsewhere or left out. The main result of the screen is listed elsewhere. These columns were measured beside it and carry no call. Compounds called inactive in the main read-out are mostly missing here. Words in brackets tell the shape of the fitted curve; partial curves, single points and poor fits give uncertain potencies.
# Experiment: qHTS Assay to Find Inhibitors of Chronic Active B-Cell Receptor Signaling
# Conditions: ABC-DLBCL IkBa-CBG/CBR reporter, luminescence ratio (green luciferase fused to IkBa over red control in TMD8 lymphoma cells), 4 h
# Method in brief: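 Doxycycline induced both beetle luciferases in TMD8 lymphoma cells; IKK-driven degradation limits the IkappaBalpha-fused green signal, while red luminescence normalises for cell number and nonspecific effects. Compounds tested up to 46 uM, 4 hrs.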
# [1] = measured here: CBR red luminescence, cell number
# [2] = measured here: IkBa-CBG green luminescence
Compound,AC50 [1],AC50 [2]
O=[N+]([O-])c1cccc(NC(=S)Nc2nc(-c3ccccc3Cl)cs2)c1,"35.5 µM [falling, single point]",
CCCCNc1oc(-c2cccs2)nc1S(=O)(=O)c1ccccc1,"4.11 µM [falling, partial curve, poor fit]","20.6 µM [rising, partial curve, poor fit]"
Cc1ccccc1OCC(=O)Nc1cccc(S(=O)(=O)NC2=NCCCCC2)c1,"20.6 µM [falling, single point]",
CC(C)CC(=O)NCc1ccc(F)cc1,"20 µM [falling, partial curve, poor fit]",
COC(=O)c1sc(NC(=O)COc2cccc3ccccc23)nc1C,"3.16 µM [falling, partial curve]",
COc1ccc2cc(C(=O)C3CCCN(C(=O)CCc4cnn(C)c4)C3)ccc2c1 (stereo not drawn),"2.82 µM [rising, full curve]",
Cc1ccc(NC(=O)CSc2ncccn2)cc1F,"4.47 µM [rising, full curve, poor fit]",
N#Cc1c(C(F)(F)F)cc(-c2ccc(Cl)cc2)nc1SCC(=O)O,"11.2 µM [falling, partial curve, poor fit]",
COc1ccc(-c2nn(-c3ccccc3)cc2/C=C/C(=O)O)cc1[N+](=O)[O-],"3.55 µM [falling, single point]","12.6 µM [falling, partial curve]"
CCNC(=O)COC(=O)Cc1ccc(Cl)cc1Cl,"11.2 µM [rising, partial curve, poor fit]",
CCCC(=O)O[C@]1(C(=O)CO)CC[C@H]2[C@@H]3CCC4=CC(=O)CC[C@]4(C)[C@H]3[C@@H](O)C[C@@]21C,"0.326 µM [rising, full curve, poor fit]","0.366 µM [falling, partial curve, poor fit]"
CCCCOc1ccc(C2C3CN(C(=O)OCC)CC=C3C(C#N)=C(N)C2(C#N)C#N)cc1OC (stereo not drawn),"14.6 µM [falling, single point]",
CCOc1ccc(C(C)=O)cc1N1C(=O)C2C3C=CC(C3)C2C1=O (stereo not drawn),"5.17 µM [rising, full curve, poor fit]",
COc1ccc(NC(=O)COC(=O)CNC(=O)C2CCCCC2)cc1OC,"20.6 µM [rising, single point]",
Cc1nnc(N2C(=O)C(O)=C(C(=O)c3ccco3)C2c2cccc3ccccc23)s1 (stereo not drawn),"6.31 µM [rising, partial curve, poor fit]",
CCOC(=O)c1ccc2c(c1)nc(COc1ccccc1C#N)n2CC,"0.00517 µM [rising, full curve, poor fit]",
Cc1cc2nc(C)n(CCCNC(=O)Nc3cccc4ccccc34)c2cc1C,"29.1 µM [falling, single point]",
COc1ccc(/C=C/C2=NN(C)C(=O)CC2)cc1,"17.8 µM [falling, single point]",
COc1ccc2[nH]c(=O)c(CNc3ccccc3OC)cc2c1,"14.1 µM [falling, partial curve, poor fit]",
CCC1=NN2C(=N)/C(=C/c3cc(C)n(Cc4ccccc4)c3C)C(=O)N=C2S1,"15.8 µM [rising, partial curve, poor fit]",
Cc1cc2sc3ccccc3c(=O)c2c(C)c1O,"10 µM [rising, partial curve, poor fit]",
Cc1ccc(-c2nnc(NCc3ccccc3)c3ccccc23)cc1,"14.6 µM [rising, partial curve]",
Cc1nc(NN)c2c3c(sc2n1)COC(C)(C)C3,"3.98 µM [rising, full curve, poor fit]",
Cc1cc(C)nc(N/N=C/c2ccccc2OCc2ccc(Br)cc2)n1,"1.84 µM [rising, partial curve, poor fit]",
O=C(/C=C/c1ccccc1Cl)Nc1ccccc1,"11.2 µM [falling, partial curve]",
C[C@@H]1COC(=O)[C@H](CC(=O)OC(C)(C)C)C/C=C\C[C@@H](CC(=O)NCCO)C(=O)N1,"20.6 µM [rising, single point]",
Cn1c(=O)n(C)c2cc([N+](=O)[O-])c(N3CCN(S(=O)(=O)c4ccccc4)CC3)cc21,"29.1 µM [rising, single point]",
COc1ccc(S(=O)(=O)N2CCSC2C)cc1C (stereo not drawn),"11.2 µM [rising, partial curve]",
O=C(N/N=C/c1ccco1)c1cc(-c2ccncc2)nc2ccccc12,"12.6 µM [rising, partial curve]","15.8 µM [falling, single point]"

# 3 compounds already listed, sorted by number of heavy atoms, ascending:
Compound,AC50 [1],AC50 [2]
O=C(/C=C/c1ccccc1Cl)Nc1ccccc1,"11.2 µM [falling, partial curve]",
COc1ccc2[nH]c(=O)c(CNc3ccccc3OC)cc2c1,"14.1 µM [falling, partial curve, poor fit]",
O=C(N/N=C/c1ccco1)c1cc(-c2ccncc2)nc2ccccc12,"12.6 µM [rising, partial curve]","15.8 µM [falling, single point]"
